{"source": "patent US20040033954A1", "about": "“Therapeutic method for combined use of modified CNTF and thiadolidinedione” (priority 2002, published 2004)", "test_system": "C57Ks/J db/db male mice", "assay": "Fatty liver of db/db mice, Oil-Red O staining for neutral lipid", "type": "in vivo", "conditions": "10-week-old db/db male mice; Avandia 3 or 10 mg/kg/day oral gavage for 13 days, ± Axokine 0.1 or 0.3 mg/kg/day in the last 8 days", "procedure": "The effects of Avandia™ administration ±Axokine™ (SEQ ID NO:1) on fatty liver of db/db mice was examined. 10-week-old C57Ks/J db/db male mice were treated for 13 days with either vehicle or Avandia™ alone (3 or 10 mg/kg/day) by oral gavage or ±Axokine™ (0.1 or 0.3 mg/kg/day) in the last 8 days. 24 hours after the last administration (day 14) all animals were anesthetized , the liver removed and rapidly frozen until it could be processed. The tissues were sectioned, mounted on glass, and stained with Oil-Red O for the detection of neutral lipid.", "note": "At least one structure is not confirmed: it was looked up by name or label, or the drawing left a doubt."}
{"smiles": "CN(CCOc1ccc(CC2SC(=O)NC2=O)cc1)c1ccccn1", "note": "(stereo not shown) [Avandia™, rosiglitazone, reference compound]", "values": [{"measurement": "deposition of neutral lipid in liver (Oil-Red O staining)", "value": "increased deposition of lipid"}]}
